Test results as given in the supplement of paper PMC10849652.
This is one part of the list.

Protein sequences, listed by entry. Tags and fused reporters are not part of them. Lines headed by an entry give the natural chain unless they say otherwise; changes in a name come on top.
UniProt Q6XR72: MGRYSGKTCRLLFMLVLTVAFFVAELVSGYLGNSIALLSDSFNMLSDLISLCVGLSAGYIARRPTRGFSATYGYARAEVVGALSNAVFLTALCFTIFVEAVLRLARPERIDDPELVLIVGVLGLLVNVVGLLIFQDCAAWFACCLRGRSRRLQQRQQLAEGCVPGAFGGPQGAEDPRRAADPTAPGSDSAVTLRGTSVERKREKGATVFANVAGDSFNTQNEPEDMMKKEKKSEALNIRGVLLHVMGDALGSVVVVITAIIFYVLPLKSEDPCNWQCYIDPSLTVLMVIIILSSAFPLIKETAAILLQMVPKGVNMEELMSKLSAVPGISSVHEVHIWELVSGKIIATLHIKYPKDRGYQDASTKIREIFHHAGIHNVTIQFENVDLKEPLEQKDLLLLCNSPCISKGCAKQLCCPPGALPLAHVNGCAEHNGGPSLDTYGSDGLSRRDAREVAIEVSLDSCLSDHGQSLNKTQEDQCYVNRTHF
UniProt P19634, whole entry, looked up: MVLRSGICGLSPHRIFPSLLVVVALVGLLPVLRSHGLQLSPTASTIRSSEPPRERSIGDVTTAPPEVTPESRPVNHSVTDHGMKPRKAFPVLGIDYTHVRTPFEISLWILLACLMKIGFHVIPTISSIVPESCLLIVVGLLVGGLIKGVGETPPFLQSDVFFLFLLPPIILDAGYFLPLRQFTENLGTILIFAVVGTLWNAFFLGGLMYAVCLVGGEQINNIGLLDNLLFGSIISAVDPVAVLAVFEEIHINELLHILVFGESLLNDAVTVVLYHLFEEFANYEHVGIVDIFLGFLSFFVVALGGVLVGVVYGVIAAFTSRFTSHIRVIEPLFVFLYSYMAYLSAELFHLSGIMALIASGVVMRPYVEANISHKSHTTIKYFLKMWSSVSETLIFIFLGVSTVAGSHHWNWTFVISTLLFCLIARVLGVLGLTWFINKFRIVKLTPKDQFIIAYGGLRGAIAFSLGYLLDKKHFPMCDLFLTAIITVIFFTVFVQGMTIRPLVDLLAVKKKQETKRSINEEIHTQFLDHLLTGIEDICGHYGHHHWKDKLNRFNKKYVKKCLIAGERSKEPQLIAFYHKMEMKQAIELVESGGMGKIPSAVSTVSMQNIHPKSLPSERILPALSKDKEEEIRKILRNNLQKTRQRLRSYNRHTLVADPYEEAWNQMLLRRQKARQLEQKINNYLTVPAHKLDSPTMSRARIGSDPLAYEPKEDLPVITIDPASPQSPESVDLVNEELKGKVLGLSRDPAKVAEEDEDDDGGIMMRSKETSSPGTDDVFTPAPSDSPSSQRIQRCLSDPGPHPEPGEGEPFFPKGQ
UniProt Q9Y6M7: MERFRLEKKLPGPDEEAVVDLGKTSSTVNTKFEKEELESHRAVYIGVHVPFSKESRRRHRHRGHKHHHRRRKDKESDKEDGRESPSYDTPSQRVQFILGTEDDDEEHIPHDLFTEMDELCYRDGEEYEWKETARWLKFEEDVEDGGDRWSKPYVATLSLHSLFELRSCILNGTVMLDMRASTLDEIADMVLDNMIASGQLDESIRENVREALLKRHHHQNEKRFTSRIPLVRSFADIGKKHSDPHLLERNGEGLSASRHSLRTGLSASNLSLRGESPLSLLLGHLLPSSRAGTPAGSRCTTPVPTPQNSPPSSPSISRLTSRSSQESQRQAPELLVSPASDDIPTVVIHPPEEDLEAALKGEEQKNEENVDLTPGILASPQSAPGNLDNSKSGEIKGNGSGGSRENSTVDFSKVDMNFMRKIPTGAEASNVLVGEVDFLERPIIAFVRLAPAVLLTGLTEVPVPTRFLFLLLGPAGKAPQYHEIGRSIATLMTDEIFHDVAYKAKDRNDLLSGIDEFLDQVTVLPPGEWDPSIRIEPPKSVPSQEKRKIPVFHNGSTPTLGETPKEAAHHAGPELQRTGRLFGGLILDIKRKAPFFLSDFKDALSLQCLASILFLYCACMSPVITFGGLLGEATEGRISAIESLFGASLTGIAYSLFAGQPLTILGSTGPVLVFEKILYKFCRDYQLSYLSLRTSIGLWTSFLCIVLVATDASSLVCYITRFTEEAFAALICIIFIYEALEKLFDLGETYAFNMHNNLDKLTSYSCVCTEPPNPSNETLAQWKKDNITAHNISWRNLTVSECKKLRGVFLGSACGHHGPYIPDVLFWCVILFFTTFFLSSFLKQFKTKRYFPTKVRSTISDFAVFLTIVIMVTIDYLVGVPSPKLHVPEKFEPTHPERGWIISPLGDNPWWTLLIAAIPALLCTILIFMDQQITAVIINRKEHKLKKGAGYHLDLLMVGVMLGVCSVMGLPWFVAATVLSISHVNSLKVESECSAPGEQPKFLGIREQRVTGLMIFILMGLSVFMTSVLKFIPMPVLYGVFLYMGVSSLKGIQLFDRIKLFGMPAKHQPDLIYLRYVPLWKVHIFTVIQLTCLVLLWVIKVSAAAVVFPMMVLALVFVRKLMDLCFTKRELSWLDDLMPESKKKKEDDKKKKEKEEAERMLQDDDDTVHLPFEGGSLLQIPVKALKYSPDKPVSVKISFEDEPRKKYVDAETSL
UniProt Q13485: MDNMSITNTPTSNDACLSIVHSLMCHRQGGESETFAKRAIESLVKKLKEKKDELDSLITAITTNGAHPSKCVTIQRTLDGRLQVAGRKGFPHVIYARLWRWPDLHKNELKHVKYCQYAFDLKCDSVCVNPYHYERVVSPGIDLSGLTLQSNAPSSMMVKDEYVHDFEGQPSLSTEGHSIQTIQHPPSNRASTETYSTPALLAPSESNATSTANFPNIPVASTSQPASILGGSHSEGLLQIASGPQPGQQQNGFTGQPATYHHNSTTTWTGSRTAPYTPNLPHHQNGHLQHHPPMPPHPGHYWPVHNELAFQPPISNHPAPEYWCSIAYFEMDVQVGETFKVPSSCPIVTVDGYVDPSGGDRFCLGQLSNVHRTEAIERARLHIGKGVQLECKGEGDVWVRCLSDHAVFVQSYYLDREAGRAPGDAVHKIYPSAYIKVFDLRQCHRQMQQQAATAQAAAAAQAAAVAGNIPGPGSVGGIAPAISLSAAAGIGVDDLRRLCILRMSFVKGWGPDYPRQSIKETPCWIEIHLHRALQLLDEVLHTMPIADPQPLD
UniProt Q9UBX3: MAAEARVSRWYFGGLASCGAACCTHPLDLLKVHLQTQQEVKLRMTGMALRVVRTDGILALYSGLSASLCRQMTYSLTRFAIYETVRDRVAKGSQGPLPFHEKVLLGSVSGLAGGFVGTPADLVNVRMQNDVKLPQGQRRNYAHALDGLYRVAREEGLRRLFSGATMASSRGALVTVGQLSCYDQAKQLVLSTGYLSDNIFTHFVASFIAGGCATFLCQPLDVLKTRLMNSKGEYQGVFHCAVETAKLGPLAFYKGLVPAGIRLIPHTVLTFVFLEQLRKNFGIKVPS
UniProt Q15599: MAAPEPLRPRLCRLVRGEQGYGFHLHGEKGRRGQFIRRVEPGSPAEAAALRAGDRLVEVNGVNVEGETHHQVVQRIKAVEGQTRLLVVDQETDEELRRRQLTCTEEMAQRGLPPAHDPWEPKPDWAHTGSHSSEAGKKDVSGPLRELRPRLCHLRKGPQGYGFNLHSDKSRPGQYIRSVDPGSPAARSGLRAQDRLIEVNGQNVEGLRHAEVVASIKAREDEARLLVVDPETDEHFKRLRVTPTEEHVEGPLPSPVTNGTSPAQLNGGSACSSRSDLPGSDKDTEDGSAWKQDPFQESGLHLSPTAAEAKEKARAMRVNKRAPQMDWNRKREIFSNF
UniProt Q96CW6: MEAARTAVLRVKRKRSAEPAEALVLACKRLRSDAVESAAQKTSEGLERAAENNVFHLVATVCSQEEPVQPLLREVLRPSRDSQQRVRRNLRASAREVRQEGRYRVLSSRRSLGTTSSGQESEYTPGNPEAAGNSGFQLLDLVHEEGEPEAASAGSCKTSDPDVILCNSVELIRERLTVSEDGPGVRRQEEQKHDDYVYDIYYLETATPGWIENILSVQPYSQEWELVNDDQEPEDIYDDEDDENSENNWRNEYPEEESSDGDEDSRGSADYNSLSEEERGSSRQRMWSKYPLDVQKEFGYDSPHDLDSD
UniProt Q6PML9: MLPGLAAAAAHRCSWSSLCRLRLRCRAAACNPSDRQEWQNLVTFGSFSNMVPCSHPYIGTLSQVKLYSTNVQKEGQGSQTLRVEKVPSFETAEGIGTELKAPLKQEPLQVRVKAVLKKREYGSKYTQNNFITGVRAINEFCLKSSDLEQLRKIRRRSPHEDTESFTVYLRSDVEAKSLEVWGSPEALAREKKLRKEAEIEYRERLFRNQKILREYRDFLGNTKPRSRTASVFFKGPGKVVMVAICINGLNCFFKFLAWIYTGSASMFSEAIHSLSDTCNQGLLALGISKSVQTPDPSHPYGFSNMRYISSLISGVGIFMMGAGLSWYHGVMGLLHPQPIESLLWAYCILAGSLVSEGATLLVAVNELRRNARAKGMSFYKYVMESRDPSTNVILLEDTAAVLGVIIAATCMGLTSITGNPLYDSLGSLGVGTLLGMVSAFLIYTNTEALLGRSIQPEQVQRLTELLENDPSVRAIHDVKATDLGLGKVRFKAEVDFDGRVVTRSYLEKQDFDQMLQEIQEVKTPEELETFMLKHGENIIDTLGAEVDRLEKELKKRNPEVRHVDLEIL
UniProt Q99717: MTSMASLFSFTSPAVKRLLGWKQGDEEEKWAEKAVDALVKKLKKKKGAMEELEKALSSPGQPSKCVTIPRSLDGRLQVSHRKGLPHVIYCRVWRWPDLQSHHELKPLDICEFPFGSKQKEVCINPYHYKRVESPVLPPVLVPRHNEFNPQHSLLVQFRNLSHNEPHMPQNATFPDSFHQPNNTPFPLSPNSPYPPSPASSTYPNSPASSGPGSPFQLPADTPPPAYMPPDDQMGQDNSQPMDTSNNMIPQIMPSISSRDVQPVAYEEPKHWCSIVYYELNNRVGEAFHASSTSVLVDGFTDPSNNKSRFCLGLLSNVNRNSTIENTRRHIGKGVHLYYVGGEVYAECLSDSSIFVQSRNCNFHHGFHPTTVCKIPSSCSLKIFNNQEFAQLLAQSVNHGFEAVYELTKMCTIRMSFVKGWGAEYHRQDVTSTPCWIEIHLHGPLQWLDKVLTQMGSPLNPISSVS
UniProt Q01650: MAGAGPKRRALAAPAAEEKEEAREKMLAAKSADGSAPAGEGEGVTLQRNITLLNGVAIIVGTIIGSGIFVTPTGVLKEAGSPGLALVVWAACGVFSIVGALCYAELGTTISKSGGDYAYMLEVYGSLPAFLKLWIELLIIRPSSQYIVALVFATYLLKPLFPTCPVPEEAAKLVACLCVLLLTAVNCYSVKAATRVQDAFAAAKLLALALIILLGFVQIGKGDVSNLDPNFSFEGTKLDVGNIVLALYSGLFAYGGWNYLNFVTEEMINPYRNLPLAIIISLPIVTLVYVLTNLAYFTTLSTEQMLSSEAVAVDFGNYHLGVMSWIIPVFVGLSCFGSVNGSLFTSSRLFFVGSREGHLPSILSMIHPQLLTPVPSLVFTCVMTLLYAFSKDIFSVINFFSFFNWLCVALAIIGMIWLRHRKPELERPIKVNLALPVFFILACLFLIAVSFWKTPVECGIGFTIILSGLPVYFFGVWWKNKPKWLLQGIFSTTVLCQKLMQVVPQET
UniProt Q5BKX6: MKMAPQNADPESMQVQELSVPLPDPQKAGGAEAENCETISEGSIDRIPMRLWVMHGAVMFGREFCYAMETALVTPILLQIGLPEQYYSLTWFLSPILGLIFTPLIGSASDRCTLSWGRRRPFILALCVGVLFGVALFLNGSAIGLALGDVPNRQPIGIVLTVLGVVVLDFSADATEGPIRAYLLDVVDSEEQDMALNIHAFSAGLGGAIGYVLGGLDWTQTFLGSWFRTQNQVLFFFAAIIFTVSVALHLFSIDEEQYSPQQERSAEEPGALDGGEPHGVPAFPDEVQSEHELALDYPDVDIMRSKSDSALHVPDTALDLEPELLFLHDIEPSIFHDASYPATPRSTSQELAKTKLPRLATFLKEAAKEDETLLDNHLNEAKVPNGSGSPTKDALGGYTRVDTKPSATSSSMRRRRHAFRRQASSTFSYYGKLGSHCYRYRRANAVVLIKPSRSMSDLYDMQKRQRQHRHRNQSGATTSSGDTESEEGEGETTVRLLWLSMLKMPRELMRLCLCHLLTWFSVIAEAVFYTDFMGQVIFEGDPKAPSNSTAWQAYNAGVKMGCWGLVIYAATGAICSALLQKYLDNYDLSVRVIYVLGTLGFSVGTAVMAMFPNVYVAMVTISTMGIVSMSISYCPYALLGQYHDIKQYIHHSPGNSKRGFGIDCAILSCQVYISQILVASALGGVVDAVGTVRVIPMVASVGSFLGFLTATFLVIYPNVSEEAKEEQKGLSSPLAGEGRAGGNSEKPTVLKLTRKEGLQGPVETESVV

Tests used:
Test in all cases: log2 fold change, soluble protein after heating vs DMSO (PISA); higher = thermal stabilisation; K562 lysate, 10 uM; active = over 0.2 and 3.5 SD of the protein, either way, in both replicates (recomputed)
[1] = compound: C1=CC=C(C=C1)[C@H](COC2=CC3=C(C=C2)NC(=O)N3)NC(=O)C4=CC=CN(C4=O)CC5=CC(=C(C=C5)F)F
How it was run: (§1)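 Quantification was by TMTpro 16plex LC-MS/MS with equalised channel sums, applied to the supernatant after 21,000xg for 90 min. Samples were crude K562 extract at 1 mg/mL protein in PBS pH 7.4 with 1 mM MgCl2, treated with 10 μM compound for 30 min, heated for 3 min across 48°C-58°C, pooled and brought to 0.5% NP-40 at 4°C. Values are log-two fold changes in thermal stability relative to solvent controls, from duplicates.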

[2] = compound: CC1=C(SC2=C1C(=N[C@H](C3=NN=C(N32)C)CC(=O)N)C4=CC=C(C=C4)Cl)C
How it was run: as §1

[3] = compound: CC1=C2C(=CC=C1)N=C(N(C2=O)C3=CC=CC=C3C)CN4C=NC5=C(N=CN=C54)N
How it was run: as §1

[4] = compound: Cc1sc2c(c1C)C(c1ccc(Cl)cc1)=N[C@@H](CC(=O)OC(C)(C)C)c1nnc(C)n1-2
How it was run: as §1

[5] = compound: c1ccc([C@@H]2C[C@H]2NC2CCNCC2)cc1
How it was run: as §1

Measured: log2 fold change

SLC7A11 (UniProt Q9UPY5)
inactive: [1] 0.034 | [2] 0.048 | [3] 0.042 | [4] -0.056 | [5] -0.029

SLC30A10 (UniProt Q6XR72)
inactive: [1] 0.125 | [2] 0.039 | [3] 0.088 | [4] 0.071 | [5] 0.067

SLC9A1 (UniProt P19634)
inactive: [1] -0.017 | [2] 0.043 | [3] -0.038 | [4] -0.083 | [5] -0.013

SLC4A7 isoform 7 (UniProt Q9Y6M7)
inactive: [1] -0.015 | [2] 0.005 | [3] 0.046 | [4] -0.019 | [5] 0.112

SLC30A5 (UniProt Q8TAD4)
inactive: [1] -0.001 | [2] 0.036 | [3] -0.019 | [4] -0.026 | [5] -0.153

SLC4A1 (UniProt P02730)
inactive: [1] -0.009 | [2] 0.017 | [3] 0.127 | [4] -0.039 | [5] 0.025

SLC38A2 (UniProt Q96QD8)
inactive: [1] 0.014 | [2] -0.067 | [3] -0.019 | [4] 0.009 | [5] -0.062

SLC39A11 (UniProt Q8N1S5)
inactive: [1] 0.022 | [2] -0.041 | [3] 0.063 | [4] 0.186 | [5] 0.036

SMAD4 (UniProt Q13485)
inactive: [1] 0.05 | [2] -0.019 | [3] 0.077 | [4] -0.008 | [5] 0.006

SLC27A2 (UniProt O14975)
inactive: [1] 0.198 | [2] -0.064 | [3] -0.043 | [4] -0.063 | [5] -0.05

SLIRP (UniProt Q9GZT3)
inactive: [1] 0.015 | [2] 0.001 | [3] 0.061 | [4] -0.011 | [5] -0.04

SLC25A10 isoform 2 (UniProt Q9UBX3)
inactive: [1] 0.009 | [2] -0.008 | [3] -0.022 | [4] 0.019 | [5] -0.015

SLC35E1 (UniProt Q96K37)
inactive: [1] -0.006 | [2] -0.157 | [3] -0.015 | [4] -0.054 | [5] 0.027

SLC9A3R2 (UniProt Q15599)
inactive: [1] 0.015 | [2] 0.013 | [3] 0.066 | [4] -0.013 | [5] -0.092

SLC25A19 (UniProt Q9HC21)
inactive: [1] 0 | [2] 0.01 | [3] -0.035 | [4] 0.031 | [5] 0.022

SLC35B2 (UniProt Q8TB61)
inactive: [1] -0.006 | [2] 0.017 | [3] 0.002 | [4] 0.071 | [5] 0.013

SLC7A6OS (UniProt Q96CW6)
inactive: [1] 0.037 | [2] -0.026 | [3] -0.02 | [4] 0.025 | [5] -0.261

SLC25A13 isoform 2 (UniProt Q9UJS0)
inactive: [1] 0.013 | [2] 0.001 | [3] -0.003 | [4] 0.019 | [5] 0.035

SLC30A9 (UniProt Q6PML9)
inactive: [1] -0.013 | [2] -0.045 | [3] 0.003 | [4] -0.013 | [5] -0.105

SLC39A10 (UniProt Q9ULF5)
inactive: [1] 0.034 | [2] -0.014 | [3] 0.031 | [4] 0.018 | [5] -0.028

SMAD5 (UniProt Q99717)
inactive: [1] -0.008 | [2] -0.004 | [3] 0.054 | [4] -0.025 | [5] 0.118

SLC29A1 isoform 2 (UniProt Q99808)
inactive: [1] 0.068 | [2] -0.06 | [3] 0 | [4] -0.011 | [5] -0.164

SLC7A1 (UniProt P30825)
inactive: [1] 0.018 | [2] -0.041 | [3] 0 | [4] 0.03 | [5] -0.012

SLC25A4 (UniProt P12235)
inactive: [1] -0.002 | [2] 0.031 | [3] -0.033 | [4] 0.048 | [5] 0.028

SLC26A6 (UniProt Q9BXS9)
inactive: [1] -0.053 | [2] 0.067 | [3] 0.011 | [4] -0.556 | [5] -0.096

SLC7A5 (UniProt Q01650)
inactive: [1] 0.019 | [2] -0.027 | [3] 0.003 | [4] -0.061 | [5] -0.231

Pulled one by one from the entries so far, 2 records:
SLC25A4 (UniProt P12235)
inactive: [1] -0.002 | [2] 0.031 | [3] -0.033 | [4] 0.048 | [5] 0.028

SLC30A9 (UniProt Q6PML9)
inactive: [1] -0.013 | [2] -0.045 | [3] 0.003 | [4] -0.013 | [5] -0.105

Later entries.

SLC45A4 isoform 3 (UniProt Q5BKX6)
inactive: [1] 0.035 | [2] 0.008 | [3] 0.04 | [5] -0.025
